Our source for the binding signal values is PMC7819943, “Rice protein-binding microarrays: a tool to detect cis-acting elements near promoter regions in rice”.

The list shows a part of the results.

The assay has as its target T1, OsSMF1 (Oryza sativa, UniProt Q6ZLB0 1-436).
T1 sequence: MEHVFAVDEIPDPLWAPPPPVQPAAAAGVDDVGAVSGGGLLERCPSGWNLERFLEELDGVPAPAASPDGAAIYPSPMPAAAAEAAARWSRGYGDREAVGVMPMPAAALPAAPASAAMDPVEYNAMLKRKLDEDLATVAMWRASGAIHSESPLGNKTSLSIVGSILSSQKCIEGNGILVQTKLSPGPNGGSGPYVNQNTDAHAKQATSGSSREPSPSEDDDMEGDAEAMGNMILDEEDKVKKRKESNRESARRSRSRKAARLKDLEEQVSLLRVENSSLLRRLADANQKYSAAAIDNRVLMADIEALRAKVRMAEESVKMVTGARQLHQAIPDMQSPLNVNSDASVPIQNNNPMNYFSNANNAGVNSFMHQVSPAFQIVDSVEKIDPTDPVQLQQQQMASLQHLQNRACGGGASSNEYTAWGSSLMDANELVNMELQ
Briefly: protein-binding microarray (RPBM); PBS, 2% BSA, 51.3 ng/ul salmon testes DNA, 50 uM zinc acetate, 200 nM TF, 25 C, 1 h; high values mean tight binding. As to conditions: protein: recombinant; tags: N-terminal polyhistidine and DsRed monomer fusion (pET32a); chain copies: 2; label: CyDye5-dUTP incorporated in the synthesized complementary strand; 3' TTTTT single-stranded linker to array surface; dsDNA, one strand shown. Put shortly:
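Ni–NTA purification followed expression in E. coli BL21-CodonPlus of transcription factors fused N-terminally to a polyhistidine tag and DsRed. At 200 nM in PBS with 2% BSA, salmon testes DNA and 50 µM zinc acetate, the protein was incubated for 1 h at 25 °C with a custom Agilent array that had been primer-extended with Cy5-dUTP and blocked with 2% BSA. After washing, the array was read on an Axon 4000B scanner. The binding signal is per-feature fluorescence intensity in arbitrary units.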
Take “TCACGTTCAACGTTTGACTGTTCGTCTTATTTAAAATTTTCGGAGTCACCTAGTGCAG”: the binding signal is 3700 fluorescence intensity (a.u.).
As for “CTCGCAGACACGACACGCCACGCCACGATAAGCCAAGACGCGGAGTCACCTAGTGCAG”, the binding signal was 4270 fluorescence intensity (a.u.).
For “GGATTGACGGGGACGCGGTGGTGGCGCCAACGGATGGACGCGGAGTCACCTAGTGCAG”, the binding signal is 6220 fluorescence intensity (a.u.).
With “AGCATTCCACGGAAAGGGAATCGTATTCGTCTCTCGTCACCGGAGTCACCTAGTGCAG” the figure was 3220 fluorescence intensity (a.u.); with “CAGCTGTTTCCTGAAATCTTGCCCCAGGGAAAACACTAGCCGGAGTCACCTAGTGCAG”, 20300 fluorescence intensity (a.u.); with “CCCTCTCTCTCATGGCTGCTGCTTGCCTGGCTAGCTAGCTCGGAGTCACCTAGTGCAG”, 3610 fluorescence intensity (a.u.).
Take “GGATCAAAACTTATCCGCGTCATCCATCTCCTTGCCCTTACGGAGTCACCTAGTGCAG”: the binding signal is 9290 fluorescence intensity (a.u.).
Regarding “AAAGCCAGAAGAGCCCATGACTCATCTTAGGTGGGCCATGCGGAGTCACCTAGTGCAG”, the binding signal was 7620 fluorescence intensity (a.u.).
Turning to “CTGCCTGCCTTGCTTGCCACCTATCCCAGCGCCTCTTCCACGGAGTCACCTAGTGCAG”, the binding signal was 3220 fluorescence intensity (a.u.).
Consider “AAGTGATACGTAGTAGCATACTATTTCCATGAAGCGTGTACGGAGTCACCTAGTGCAG”, for which the binding signal was 3950 fluorescence intensity (a.u.).
The figure for “TTAAGAATGTTTGCCACGATAGCGTGACAGGCAGCGAGCACGGAGTCACCTAGTGCAG” is 3190 fluorescence intensity (a.u.); for “GGGCATCGTAGTCGTACCCGATAAGCCACGTATCCGGCCTCGGAGTCACCTAGTGCAG” it is 6840 fluorescence intensity (a.u.); for “TTTTCCTATGACGCACTACTTGTTAGCTACTCCTCATGCACGGAGTCACCTAGTGCAG” it is 4500 fluorescence intensity (a.u.).
For the sequence “AATACAGGTTCTTGAGCTTGTCAGCTTCCAACCAAAGCAACGGAGTCACCTAGTGCAG”, the binding signal was 29300 fluorescence intensity (a.u.).
As to “CGGCTGAAATCGTCCACGCAAACACCGTCCAGAATCGCGCCGGAGTCACCTAGTGCAG”, the binding signal was 3640 fluorescence intensity (a.u.).
For the sequence “GATGGCTATCTGCCCGGGCAAAGTGTACCCTTTTACTGTTCGGAGTCACCTAGTGCAG”, the binding signal was 30800 fluorescence intensity (a.u.).
Turning to “TAAACATAGTTTACGTGTAGACCTTTTATGTTTGTATTCTCGGAGTCACCTAGTGCAG”, the binding signal was 3480 fluorescence intensity (a.u.).
Consider “CTGATGCAACTTAAGTGGGCCCATCTAGAAAATGTGGCCCCGGAGTCACCTAGTGCAG”, for which the binding signal was 3650 fluorescence intensity (a.u.).
Regarding “CTCCGTCGTTCGCGTGCATGCGTGAGGTGCTCCTCCTCGGCGGAGTCACCTAGTGCAG”, the binding signal is 3340 fluorescence intensity (a.u.).
As for “CTAGTGGTGGTTCCTGTGTCTAGTCTGCACATGTAGAGATCGGAGTCACCTAGTGCAG”, the binding signal was 5900 fluorescence intensity (a.u.).
For “TCGATCGACATGGTGAATTGGCGATCGGGTTGGCTCGGCTCGGAGTCACCTAGTGCAG”, the binding signal was 3170 fluorescence intensity (a.u.).
For the sequence “TGAGTGAAACACATAGTAAATAGTAAAGTTACACGGTCCACGGAGTCACCTAGTGCAG”, the binding signal was 29000 fluorescence intensity (a.u.).
The figure for “ATACAAGCTTCTTTTATTTTCCCCTTTTCTTATCCCAGAACGGAGTCACCTAGTGCAG” is 36700 fluorescence intensity (a.u.).
As to “TATTTCCTGGGCAGAAACTAGTGCAGGTTTGGCCATAATCCGGAGTCACCTAGTGCAG”, the binding signal was 21000 fluorescence intensity (a.u.).
Consider “GAACGGGACCAGCTACTATAGTGAAATTTAGATTTCAAAGCGGAGTCACCTAGTGCAG”, for which the binding signal was 42200 fluorescence intensity (a.u.).
Turning to “ATGAAATATATATCTAACATCAAAATAACACGTGGCGTGCCGGAGTCACCTAGTGCAG”, the binding signal was 11000 fluorescence intensity (a.u.).
The figure for “CCTCCTCCGCGCTCGCCGGAGACAGCCACATCACAGCACACGGAGTCACCTAGTGCAG” is 4060 fluorescence intensity (a.u.); for “TTCGCCGCCGGCGTCATCCTCGCCACGGCGTTCGTGCACACGGAGTCACCTAGTGCAG” it is 4340 fluorescence intensity (a.u.); for “AACACAACATGCTGTCAGGGCTACAAATGTTGAGAGTCTCCGGAGTCACCTAGTGCAG” it is 28900 fluorescence intensity (a.u.).
Turning to “TTGGTGACTGTTCATGTGTGATGTGTCGTGTCTTACGTGTCGGAGTCACCTAGTGCAG”, the binding signal is 11400 fluorescence intensity (a.u.).
With “CAAACAAGGACCGTAGACACTCTAACCAACCCCAATAACACGGAGTCACCTAGTGCAG” the figure was 31300 fluorescence intensity (a.u.).
Consider “TCGCCACCGCCACGTCATCTCCCCACCCTCCTCCTCTTCCCGGAGTCACCTAGTGCAG”, for which the binding signal is 44700 fluorescence intensity (a.u.).
As for “AGACGACGGACTAGTGCGTGCGTGCGTGACGCGAGAGGCTCGGAGTCACCTAGTGCAG”, the binding signal was 3430 fluorescence intensity (a.u.).
With “GAGATGACACAGCCTAACATGTGGGTCCCACGCTGACTCACGGAGTCACCTAGTGCAG” the figure was 6720 fluorescence intensity (a.u.); with “CGGCTAGATCTACGCCGGCGAAATCGCCGTGGCGGCGAAACGGAGTCACCTAGTGCAG”, 3580 fluorescence intensity (a.u.); with “TCGAATCGGGAAACCTAACGGCGAGCGGCGCCTCCACCTCCGGAGTCACCTAGTGCAG”, 31300 fluorescence intensity (a.u.).
With “GCCGCTCCCTGCCTCCGCGTGTCGTCGTCGCCCAGCTGCACGGAGTCACCTAGTGCAG” the figure was 4240 fluorescence intensity (a.u.); with “AGATTTGTGCTCTGACCCACTTCACTCACTTAGTCTCTAGCGGAGTCACCTAGTGCAG”, 3630 fluorescence intensity (a.u.); with “CACCTGCTGCTTGAGGTCGTGACGCGCGCGCGTCAGATAGCGGAGTCACCTAGTGCAG”, 3380 fluorescence intensity (a.u.).
Turning to “AACGTGGAACGGTGGAAGCAATCGGCGGACGCCACGGTGGCGGAGTCACCTAGTGCAG”, the binding signal is 3910 fluorescence intensity (a.u.).
The figure for “AGCCTGCCCAATCCCAGTTCGTCGTCATCTTCAGAGCGAGCGGAGTCACCTAGTGCAG” is 3580 fluorescence intensity (a.u.); for “GGCCGTCTCGTCCTCTCTCCACATCATCCCCGTTCCCTCGCGGAGTCACCTAGTGCAG” it is 6650 fluorescence intensity (a.u.).
As to “CACCTACGCAGGTGAGGTGTCCCGCCACGTCACCTGCCGCCGGAGTCACCTAGTGCAG”, the binding signal is 34300 fluorescence intensity (a.u.).
For the sequence “TTCCTCCCCACGCCACGCCACCGAGGAGTAGCCACTCGCCCGGAGTCACCTAGTGCAG”, the binding signal is 4860 fluorescence intensity (a.u.).
On to “GCATATAACTTTCACGAGACAAACGTGAAATATCCGTATCCGGAGTCACCTAGTGCAG”, for which the binding signal is 4390 fluorescence intensity (a.u.).
Consider “GGGAGAGGAGGGGAGAGGGTGGTGACGTGGCCAGCTGACACGGAGTCACCTAGTGCAG”, for which the binding signal is 15700 fluorescence intensity (a.u.).
With “ATCTGAGTCAGAATGGGCCTAATGGAGAGATGGGCTGTACCGGAGTCACCTAGTGCAG” the figure was 3140 fluorescence intensity (a.u.); with “AGTGATTAATTACACTGAGCTGGAAGCTAGCCTTGACCTGCGGAGTCACCTAGTGCAG”, 3200 fluorescence intensity (a.u.).
With “CATAATTTTAGGTATCGCTAGGATTTAATTTACACTGTAGCGGAGTCACCTAGTGCAG” the figure was 3370 fluorescence intensity (a.u.).
The figure for “TTGCACACTCTGCTTAGAGGGTGCCGTGGCGTTCCTCCACCGGAGTCACCTAGTGCAG” is 4350 fluorescence intensity (a.u.); for “ATTTTCCACGTCATCATGGTGCGGGAGACACGTGTCCACACGGAGTCACCTAGTGCAG” it is 24000 fluorescence intensity (a.u.).
In the case of “TAGTAATAATAGATCTCAGGCAAGAGTACTACAGCTGATTCGGAGTCACCTAGTGCAG”, the binding signal is 27100 fluorescence intensity (a.u.).
With “TATTGCCTACTGGTGTTCGAATGAGTAGGATGGGATGTGCCGGAGTCACCTAGTGCAG” the figure was 3500 fluorescence intensity (a.u.).
The figure for “ATGTAATTATCATTTATTTTATTATGACTTGATTCGTCATCGGAGTCACCTAGTGCAG” is 4250 fluorescence intensity (a.u.).
